Experimental data from paper PMC8691648, “Heterophilic and homophilic cadherin interactions in intestinal intermicrovillar links are species dependent” (PLoS Biology, 2021).
Results are given in words; binding and its absence hold for the method and conditions named.

Target: mm PCDH24 EC1-MAD10Fc (mouse) (UniProt E9Q7P9)
Assay: bead aggregation assay; homophilic; Protein G Dynabeads coated with one Fc fusion captured from concentrated serum-free medium and washed; 50 mM Tris pH 7.5, 100 mM NaCl, 10 mM KCl, 0.2% BSA, 2 mM CaCl2; 60 min on a depression slide, then rocking 1 to 2 min; both purified

binding: no binding
B1: mm PCDH24 EC1-MAD10Fc (Fc fusion, UniProt E9Q7P9 21-1152)
chain: NSPPSFGVNMTLVTLPEDLPVGAVAFWLVATDSDNDHLTYGISGPNASYFSVNANTGEVKLASPLDFETVPFFKITISTSDGLNIRTAEMQVIVEDRNDNIPVFLNTEFSTSINETLPVGSVVFSVLAEDKDTGTAGLVQYFIEKVIPSTANSNNLFRILENGSIVLNDTLSYNNKSAFYQLELKACDSGGILDNKPKTQCSQPVFVSISVIDEPDLDPRFIREFYSASVAEDATLGTSVLTVEAVDSDKGINDIVTYSVSNSTRPGWFDIREDGVIFVNGSLDREQLLLENEEVQIQVTATEKNLNIYGQEAKASMWVTIRVTDVNDHKPEFYNCSLPGCSFSPQEAQVNFIGYVDEHASARISIDGLTMVAYDPDQGDNGTFLLSLNGQDAEAFNVSPERAAGSVSVQVVVRNSEMVDYEKETVMVVEVVATDSVSNNYSVATVTIHLRNINDHRPVFSQSLYELTVPEHCPTGYLVTDKIQATDLDGDEWGPITYSLLPGNGADLFEVEPNSGNLTVKNGTLLDREKQAVYYLTLQATDGGNQSTTTALEITLLDINDNPPVVRGSYNVFVPEENGNVSVTIQAYDDDQPDTNNSLLVFSLLPGPYSSNFSLDPNTGLLRNLGPLDREAIDPALEGRIVLTVIVADCGEPSLSTNVNVTITVEDINDNLPVFNQSYEFSVWERVPGAWVGTVKAWDADQTAANNRISFSLSGTGANNFILQGNVLEQGWAEGSLWLLPDVRLDYETQKFFHLTVSAENPGPQGLDSTANVTVTVMDVNDEPPTLDAASLQAISVTENGSEHGQVTRVIAQDVDTAALLRIELVDVICTKAGVDVGSVCHGWFSVDGNGSVYINQSEAIDYEACHLVTLVVRAYDLNTDPGFDAYSSNGSLLINIKDKNDNAPYFLPNNQTFVIIPELVLPNQQVASVQARDEDSEDNGIIMFSILKAEFVRKDGTSNPVQVFRITRSVEAGLFTGSIELVTNLDSTIQGTYQVTVQAQDQPTLGPALETQTTLNLFTVDQSYRVRLQFSTSKEDVGANMEEIKEALIQATRTSVYVVTIQNIDSTARARASSYMDAYFVFSNGTALTLTELNMMIRKDQDALRQLLQLGLVVVSSQESQEPDQQKLLTSTVPRARDPPV
